Assay results taken from the supplement of paper PMC5949888.
Most values lie at the floor of the assay. Slopes are relative: functional sequences can read slightly below zero.

The substances below were run on Saccharomyces cerevisiae PS128 hsf1 delta, HSF1(1-493) fusion (assay: growth estimate (transactivation domain function in HSF1 fusion, heat-shock survival) (a.u. (slope of normalised read count over time)); higher = stronger growth at 37°C, i.e. more transactivation activity). Conditions: library: random library.
RVEGHDVLGWLMALMLQRRV showed a growth estimate of less than -0.25. With STTYFILFAIRFTLICASSV the growth estimate was less than -0.25. In the case of ENYWGLA, the growth estimate is reported as less than -0.25. In the case of GLVKSAGDHLDIMFAG, the growth estimate is reported as less than -0.25. PGEVAPLYQGRALRFVT showed a growth estimate of less than -0.25. With VSLG the growth estimate was less than -0.25. ESHVRSFSAW was tested, and the growth estimate was less than -0.25. WPAVVIVPEQVLSCQGSRSQ showed a growth estimate of less than -0.25. Substance AGRSLSENYRVLAPPSMH has a growth estimate of -0.243. GGRPGGRP showed a growth estimate of less than -0.25. Work on RYDADFWGTRNMHHLGLF yielded a growth estimate of less than -0.25. In the case of KDWLLGYGSTYDFRIRVTSN, the growth estimate is reported as less than -0.25. With VFM the growth estimate was less than -0.25. For GYGRLRLF, the growth estimate was less than -0.25. With GSPPEPES the growth estimate was less than -0.25. With MTRLESIIVHHVI the growth estimate was less than -0.25. In the case of GGVSALKAEGVCSL, the growth estimate is reported as less than -0.25. FRGIR showed a growth estimate of less than -0.25. In the case of RGVQPMGTDILLRCPLTFGR, the growth estimate is reported as less than -0.25. LGDAELMLTNVVPHSYYFTT was tested, and the growth estimate was less than -0.25. GHFALS was tested, and the growth estimate was less than -0.25. Substance HSDIDRELSRVRETSEVNDC has a growth estimate of less than -0.25. In the case of KWTMGTRQPVLSGDGSPQRV, the growth estimate is reported as less than -0.25. In the case of FGAATLPRRGDCRIDIRGRF, the growth estimate is reported as less than -0.25. VRRCHSLDIVRIPVGIMVVL was tested, and the growth estimate was less than -0.25. With DSAWAGRRSTD the growth estimate was less than -0.25. In the case of KSGVDRRRPCPK, the growth estimate is reported as less than -0.25. YHMWSGLTVMCGPNHFDPYR was tested, and the growth estimate was less than -0.25. RMIDWAAF gave a growth estimate of less than -0.25. VLFFVLCRIFEEAVTGCATV showed a growth estimate of less than -0.25. For RCHATEQIQRSS, the growth estimate was less than -0.25. For RTGARSCCIWTVSRAVDLSP, the growth estimate was less than -0.25. In the case of EIIDSVYVNCSCQFPGRTAY, the growth estimate is reported as less than -0.25. Work on GSVRWAGNKRYESKR yielded a growth estimate of less than -0.25. For RRRKLTVYSQ, the growth estimate was less than -0.25. For PIYYGVQEVCPDAHFCPPHL, the growth estimate was less than -0.25. Substance VPIMELQMSVVLDEMYA has a growth estimate of less than -0.25. SLSSYTCPSVTRRKPQQFST gave a growth estimate of less than -0.25. In the case of LKDAVDGASVPQGSGTAVGV, the growth estimate is reported as less than -0.25. Substance AHPASSAVPLHVSRSRLRSP has a growth estimate of less than -0.25. Substance LLKDEKPAIHLVGFARRNIF has a growth estimate of less than -0.25. SRASTLENAIVGDSKVVSGH showed a growth estimate of less than -0.25. Substance TKRVLSYGVTFVKCLQRVVG has a growth estimate of less than -0.25. In the case of SDADQADSCSGTLHVDTPSL, the growth estimate is reported as less than -0.25. NPDNSIGL was tested, and the growth estimate was less than -0.25. Work on TGF yielded a growth estimate of less than -0.25. For EDYYVRI, the growth estimate was less than -0.25. Substance VSDYRQGRIETYQEL has a growth estimate of less than -0.25. For DKCHLPCPGRNQVPLATLCS, the growth estimate was less than -0.25. In the case of TQEPSIRDRVASANLLVAFT, the growth estimate is reported as less than -0.25. In the case of GDGKD, the growth estimate is reported as less than -0.25. Work on CHTL yielded a growth estimate of less than -0.25. LKMRMLRDEEIV showed a growth estimate of less than -0.25. SVQAGGRMLHSTQVLGGAGE showed a growth estimate of less than -0.25. EVRCRCAKFPGVDRVSEYSG was tested, and the growth estimate was less than -0.25. Work on QLGMV yielded a growth estimate of less than -0.25. Work on LATEM yielded a growth estimate of less than -0.25. With PESLVCSNALRTP the growth estimate was less than -0.25. DIRVPSVSLQSPNSMAWPLI was tested, and the growth estimate was -0.0419. In the case of MILGHLARRYVSRK, the growth estimate is reported as less than -0.25. FALTHKDQNGMIHVQCIP gave a growth estimate of less than -0.25. Work on TNLST yielded a growth estimate of less than -0.25. For GLELDIG, the growth estimate was less than -0.25. HAGCRTLFG showed a growth estimate of less than -0.25. HRTHHLSMGRFRFSMNSTRA showed a growth estimate of less than -0.25. Substance RRHSL has a growth estimate of less than -0.25. With LWRKGPRRTD the growth estimate was less than -0.25. For ILGTAHAQILHKHEVYARQH, the growth estimate was less than -0.25. In the case of HSPDKEILIRQNGIKPANWK, the growth estimate is reported as less than -0.25. TPMTVSINSQEKPPTASSPL gave a growth estimate of less than -0.25. KINYSSLLDNPGSMFKLLER was tested, and the growth estimate was less than -0.25. YVQSVSPCDASTVGHLGDPG showed a growth estimate of less than -0.25. CPNAACSFAPTLTRENCGRH gave a growth estimate of less than -0.25. Substance VPSRGMGTPEIVICVSEVCG has a growth estimate of less than -0.25. Substance AFSSSQVSQRSILRKQLAQA has a growth estimate of less than -0.25. With VAQM the growth estimate was less than -0.25. AFPGRTAI was tested, and the growth estimate was less than -0.25. For RGGNGRGVMPIGY, the growth estimate was -0.246. Work on QHRRKRGRWLLEVMKNH yielded a growth estimate of less than -0.25. PNPMASTKTHVGFSSDKSVG was tested, and the growth estimate was less than -0.25. For SRAY, the growth estimate was less than -0.25. In the case of AGPRG, the growth estimate is reported as less than -0.25. CQHRCTWGLPSIPVSAV showed a growth estimate of less than -0.25. In the case of SEGESVGTADACPYRPSYWQ, the growth estimate is reported as 1.62. Work on GLQDWTGRPEPV yielded a growth estimate of less than -0.25. Substance GNIWFEEQL has a growth estimate of less than -0.25. EGTNLRNLGRRRLCAVLRRC showed a growth estimate of less than -0.25. For QRGPRRSFYARQNLTTRGSV, the growth estimate was less than -0.25. VSQSVWDRAPQSMTFDRQWA gave a growth estimate of less than -0.25. For RKSASTVLSRRVRARMFTRF, the growth estimate was less than -0.25. Work on KLREDDMGGTV yielded a growth estimate of less than -0.25. With GGFNLWSHLRSTSEDYNPYI the growth estimate was -0.243. LERHLKWQITAYPRGHPDII showed a growth estimate of less than -0.25. RITM was tested, and the growth estimate was less than -0.25. KKEGSIITRDRTVCNQSNQS gave a growth estimate of less than -0.25. With FSW the growth estimate was less than -0.25. VHTTY showed a growth estimate of less than -0.25. Work on LHES yielded a growth estimate of less than -0.25. Substance RAVPAGQEHRRIRA has a growth estimate of less than -0.25.
